Assay results: ChEMBL document CHEMBL4033774, “Class I HDAC Inhibitors: Potential New Epigenetic Therapeutics for Alcohol Use Disorder (AUD)” (J Med Chem, 2018)

By UniProt entry, the sequences of proteins in these tests, tags left out. Where a name states a change or a piece, a line headed by the entry shows the natural chain unless it says otherwise.
UniProt P56524: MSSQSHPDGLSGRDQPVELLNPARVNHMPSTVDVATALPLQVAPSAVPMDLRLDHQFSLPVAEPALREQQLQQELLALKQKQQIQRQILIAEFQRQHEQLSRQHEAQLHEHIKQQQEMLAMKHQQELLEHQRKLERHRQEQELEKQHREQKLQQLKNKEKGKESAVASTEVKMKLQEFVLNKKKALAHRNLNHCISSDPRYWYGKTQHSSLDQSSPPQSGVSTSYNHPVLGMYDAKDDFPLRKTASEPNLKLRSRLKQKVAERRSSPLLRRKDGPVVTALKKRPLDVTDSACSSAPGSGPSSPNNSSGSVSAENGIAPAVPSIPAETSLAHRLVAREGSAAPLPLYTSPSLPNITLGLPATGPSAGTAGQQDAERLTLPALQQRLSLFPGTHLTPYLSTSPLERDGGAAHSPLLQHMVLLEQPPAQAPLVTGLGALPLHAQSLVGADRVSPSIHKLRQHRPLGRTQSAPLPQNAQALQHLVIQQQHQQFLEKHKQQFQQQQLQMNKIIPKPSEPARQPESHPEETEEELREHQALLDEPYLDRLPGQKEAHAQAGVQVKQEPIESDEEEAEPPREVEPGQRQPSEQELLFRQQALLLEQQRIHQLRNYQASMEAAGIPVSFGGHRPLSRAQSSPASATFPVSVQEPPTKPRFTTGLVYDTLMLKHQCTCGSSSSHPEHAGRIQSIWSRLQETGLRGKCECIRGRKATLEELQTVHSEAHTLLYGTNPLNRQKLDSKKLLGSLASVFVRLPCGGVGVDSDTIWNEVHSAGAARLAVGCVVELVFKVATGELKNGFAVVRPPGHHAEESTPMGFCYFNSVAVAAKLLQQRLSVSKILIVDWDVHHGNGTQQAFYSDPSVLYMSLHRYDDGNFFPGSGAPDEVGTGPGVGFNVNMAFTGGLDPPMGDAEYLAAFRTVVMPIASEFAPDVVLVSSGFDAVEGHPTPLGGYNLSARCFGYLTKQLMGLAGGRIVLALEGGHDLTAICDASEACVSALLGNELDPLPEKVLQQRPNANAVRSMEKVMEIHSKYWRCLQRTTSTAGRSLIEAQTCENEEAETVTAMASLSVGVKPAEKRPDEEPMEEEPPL
UniProt Q9UQL6: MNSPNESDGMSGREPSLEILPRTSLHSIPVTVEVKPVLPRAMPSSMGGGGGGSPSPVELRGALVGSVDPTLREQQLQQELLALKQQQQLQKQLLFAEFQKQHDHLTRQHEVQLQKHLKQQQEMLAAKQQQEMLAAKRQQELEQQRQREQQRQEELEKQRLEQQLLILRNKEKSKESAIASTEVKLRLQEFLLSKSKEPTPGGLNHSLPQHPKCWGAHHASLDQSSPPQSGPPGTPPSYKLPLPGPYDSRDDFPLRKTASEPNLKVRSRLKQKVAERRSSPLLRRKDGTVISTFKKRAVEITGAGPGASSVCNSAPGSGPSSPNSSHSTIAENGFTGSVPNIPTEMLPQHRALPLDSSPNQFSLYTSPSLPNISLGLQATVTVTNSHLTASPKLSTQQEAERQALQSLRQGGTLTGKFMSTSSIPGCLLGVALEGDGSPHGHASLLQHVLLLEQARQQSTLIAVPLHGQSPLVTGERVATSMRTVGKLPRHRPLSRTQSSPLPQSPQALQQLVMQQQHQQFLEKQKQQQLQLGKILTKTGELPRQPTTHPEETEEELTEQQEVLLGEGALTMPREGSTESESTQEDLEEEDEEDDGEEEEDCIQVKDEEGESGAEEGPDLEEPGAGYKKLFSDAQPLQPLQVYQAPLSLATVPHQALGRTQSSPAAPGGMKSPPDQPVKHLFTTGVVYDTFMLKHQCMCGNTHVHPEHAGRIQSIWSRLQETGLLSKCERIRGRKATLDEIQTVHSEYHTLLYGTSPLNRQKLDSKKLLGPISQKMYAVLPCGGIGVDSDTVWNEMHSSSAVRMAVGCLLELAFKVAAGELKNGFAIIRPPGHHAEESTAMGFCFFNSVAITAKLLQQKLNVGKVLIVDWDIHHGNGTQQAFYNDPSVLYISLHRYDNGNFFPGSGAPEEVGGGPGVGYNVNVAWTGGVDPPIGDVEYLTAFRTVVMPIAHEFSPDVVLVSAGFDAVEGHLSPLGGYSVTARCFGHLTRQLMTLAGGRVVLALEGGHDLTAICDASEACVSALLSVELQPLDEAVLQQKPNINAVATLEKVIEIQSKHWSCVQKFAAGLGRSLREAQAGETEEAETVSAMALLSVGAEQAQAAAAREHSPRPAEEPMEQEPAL

Assays:
Histone deacetylase 4 = Histone deacetylase 4 (Homo sapiens, UniProt P56524); assay: Inhibition of human recombinant N-terminal GST-tagged/C-terminal His-tagged HDAC4 expressed in baculovirus infected insect cells preincubated for 2 hrs followed by Fluor-de-Lys substrate addition measured after 30 mins by fluorescence assay; format: cell-based
Histone deacetylase 5 = Histone deacetylase 5 (Homo sapiens, UniProt Q9UQL6); assay: Inhibition of human recombinant C-terminal His-tagged HDAC5 expressed in baculovirus infected insect cells preincubated for 2 hrs followed by Fluor-de-Lys substrate addition measured after 30 mins by fluorescence assay; format: cell-based
Histone deacetylase 7 = biological target: T1, Histone deacetylase 7 (Homo sapiens, UniProt Q8WUI4); assay: Inhibition of human recombinant N-terminal GST-tagged HDAC7 expressed in baculovirus infected insect cells preincubated for 2 hrs followed by Fluor-de-Lys substrate addition measured after 30 mins by fluorescence assay; format: cell-based
T1 sequence (Q8WUI4 whole entry): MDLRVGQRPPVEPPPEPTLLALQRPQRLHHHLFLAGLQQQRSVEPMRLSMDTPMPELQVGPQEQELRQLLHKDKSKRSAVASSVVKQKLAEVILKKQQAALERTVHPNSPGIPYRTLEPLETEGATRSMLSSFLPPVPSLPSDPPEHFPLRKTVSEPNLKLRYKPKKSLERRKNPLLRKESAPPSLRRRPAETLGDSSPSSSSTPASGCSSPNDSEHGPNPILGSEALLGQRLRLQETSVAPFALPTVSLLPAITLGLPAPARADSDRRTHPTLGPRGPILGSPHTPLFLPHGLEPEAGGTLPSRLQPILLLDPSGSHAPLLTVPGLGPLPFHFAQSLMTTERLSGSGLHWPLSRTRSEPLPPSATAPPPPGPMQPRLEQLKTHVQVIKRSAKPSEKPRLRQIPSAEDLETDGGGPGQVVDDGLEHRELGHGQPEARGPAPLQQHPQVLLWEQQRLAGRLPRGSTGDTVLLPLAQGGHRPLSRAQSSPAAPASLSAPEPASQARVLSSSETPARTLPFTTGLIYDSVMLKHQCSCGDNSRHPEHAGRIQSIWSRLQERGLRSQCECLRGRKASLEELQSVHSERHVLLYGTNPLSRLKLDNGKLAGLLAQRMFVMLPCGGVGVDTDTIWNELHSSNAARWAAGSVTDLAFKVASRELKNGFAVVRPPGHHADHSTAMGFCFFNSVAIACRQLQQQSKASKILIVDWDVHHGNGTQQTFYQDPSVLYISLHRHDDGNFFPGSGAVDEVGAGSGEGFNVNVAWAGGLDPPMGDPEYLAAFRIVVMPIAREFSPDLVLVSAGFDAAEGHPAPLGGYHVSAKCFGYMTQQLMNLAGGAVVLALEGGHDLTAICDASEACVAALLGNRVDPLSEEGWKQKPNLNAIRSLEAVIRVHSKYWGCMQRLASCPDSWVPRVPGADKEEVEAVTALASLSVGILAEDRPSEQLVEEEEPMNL

Histone deacetylase 8 = biological target: T2, Histone deacetylase 8 (Homo sapiens, UniProt Q9BY41); assay: Inhibition of HDAC8 (unknown origin) preincubated for 2 hrs followed by Fluor-de-Lys substrate addition measured after 30 mins by fluorescence assay
T2 sequence (Q9BY41 whole entry): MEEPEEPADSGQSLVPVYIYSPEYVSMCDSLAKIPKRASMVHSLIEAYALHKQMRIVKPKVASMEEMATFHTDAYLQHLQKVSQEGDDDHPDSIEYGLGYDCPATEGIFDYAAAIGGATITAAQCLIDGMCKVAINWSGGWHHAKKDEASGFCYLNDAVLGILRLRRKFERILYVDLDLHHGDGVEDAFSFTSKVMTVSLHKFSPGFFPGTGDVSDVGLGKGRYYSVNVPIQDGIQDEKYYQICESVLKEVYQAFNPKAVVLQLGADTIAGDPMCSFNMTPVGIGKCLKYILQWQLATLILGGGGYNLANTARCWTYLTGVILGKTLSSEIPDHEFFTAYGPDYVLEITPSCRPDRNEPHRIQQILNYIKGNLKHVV

SMILES: Cc1ccc(C(=O)NCCCCCC(=O)Nc2ccccc2N)cc1
- IC50 (Histone deacetylase 4): > 180 µM
- IC50 (Histone deacetylase 5): > 180 µM
- IC50 (Histone deacetylase 7): > 180 µM
- IC50 (Histone deacetylase 8): 10.7 µM
